# Experimental data: patent US6255314A, “Cancerous metastasis inhibitors containing uracil derivatives” (Taiho Charmaceutical Co., Ltd., priority 1996, dated 2001)
# Structures can show the parent of a compound that is named as a salt. For at least one compound, name, drawing or mass did not settle the structure.
# System: TMK-1 (human gastric cancer) cells
# Test: Test 2 (Effects of Life Prolongation on Liver Metastasis Model)
# Format: in vivo, BALB/c-nu/nu male mice; human gastric cancer cells
# Conditions: oral, 42 days, vs control
# Experimental: Effects of life prolongation were assessed using a liver metastasis model system consisting of BALB/c-nu/nu male mice (seven weeks old) each of which had been transplanted in the spleen thereof with 1×10^6 cells/mouse of TMK-1 (human gastric cancer) cells.
# Specific experimental procedures were carried out by modifying the method proposed by Morikawa et al. in Cancer Research, 48, 1943-1948 (1988). Described specifically, cells which had been cultured in vitro were collected with 0.25%(w/v) trypsin-0.2%(w/v) EDTA and were then washed with a physiological phosphate buffer. The cells were next counted, followed by dilution to 1×10^6 cells/50 μl. Under anesthetization with 30 mg/kg of "Nembutal", each of the mice was incised at its left abdominal region and the spleen was then pulled out. The cell suspension of 10^6 cells/50 μl which had been prepared above was injected in an amount of 50 μl into the spleen by a syringe fitted with a 28-gauge injection needle. After the mouse was left over for 2 minutes, the blood vessel to the spleen was tied at two positions by ligating clips, respectively, and the spleen was cut off. The excised abdominal region was closed with a suturing stapler. […] The increase of life span (ILS%) was calculated in accordance with the following formula. […]
smiles,measurement,value
"N=C1CCCN1Cc1[nH]c(=O)[nH]c(=O)c1Cl [Compound 29, 5-chloro-6-(1-(2-iminopyrrolidinyl)-methyl)uracil hydrochloride]",period of survival (in words),significantly prolong the period of survival
